PubChem BioAssay AID1159584 – Peter MacCallum Cancer Centre – 2016
The deposit covers about 18,000 reagents; this is an unselected part. Not all columns of the deposit are shown. Not stated in the record: the amount of reagent, the time to read-out.

Test: 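Genes whose loss is lethal only together with E-cadherin loss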 (primary screen)
System: human MCF10A breast epithelial cells, parental and CDH1-null
Reagent: siRNA against human genes
Measured: 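ATP luminescence (CellTiter-Glo) viability per line relative to mean mock wells over all plates, and the ratio of CDH1-null to parental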
Scale: CDH1-null / parental viability ratio: higher = CDH1-null cells survive relatively better than parental

| gene knocked down | CDH1-null / parental viability ratio |
| --- | --- |
| TRMT2A (tRNA methyltransferase 2A) | 1.11 |
| SOAT2 (sterol O-acyltransferase 2) | 0.9 |
| RFPL2 (ret finger protein like 2) | 1.02 |
| AMIGO2 (adhesion molecule with Ig like domain 2) | 1.5 |
| SNX8 (sorting nexin 8) | 1.03 |
| USP9X (ubiquitin specific peptidase 9 X-linked) | 1.27 |
| TNP2 (transition protein 2) | 1.66 |
| PSTPIP1 (proline-serine-threonine phosphatase interacting protein 1) | 1.02 |
| LOC401052 (retired record) | 1.04 |
| SLC9B2 | 0.9 |
| MRAP (melanocortin 2 receptor accessory protein) | 1.15 |
| CDKN1B (cyclin dependent kinase inhibitor 1B) | 0.88 |
| ZNF805 (zinc finger protein 805) | 1.08 |
| WFS1 (wolframin ER transmembrane glycoprotein) | 1.1 |
| FZD1 (frizzled class receptor 1) | 0.94 |
| SKAP1 (src kinase associated phosphoprotein 1) | 1 |
| CDKN3 (cyclin dependent kinase inhibitor 3) | 1.38 |
| AKAP17A (A-kinase anchoring protein 17A) | 1 |
| UGT1A8 (UDP glucuronosyltransferase family 1 member A8) | 1.19 |
| WWC3 (WWC family member 3) | 1.01 |
| C1orf21 (chromosome 1 open reading frame 21) | 0.96 |
| SYNC (syncoilin, intermediate filament protein) | 0.9 |
| FAM163B (family with sequence similarity 163 member B) | 0.87 |
| ACOX3 (acyl-CoA oxidase 3, pristanoyl) | 1.07 |
| LAMC1 (laminin subunit gamma 1) | 0.87 |
| HAX1 (HCLS1 associated protein X-1) | 0.88 |
| SYCP2 (synaptonemal complex protein 2) | 0.81 |
| UBE2J1 (ubiquitin conjugating enzyme E2 J1) | 1 |
| VPS4B (vacuolar protein sorting 4 homolog B) | 1.31 |
| TM2D2 (TM2 domain containing 2) | 0.91 |
| ASB11 (ankyrin repeat and SOCS box containing 11) | 0.99 |
| KCNK17 (potassium two pore domain channel subfamily K member 17) | 1.3 |
| CPEB3 (cytoplasmic polyadenylation element binding protein 3) | 0.84 |
| EHMT2 (euchromatic histone lysine methyltransferase 2) | 0.92 |
| ZNF662 (zinc finger protein 662) | 1.2 |
| EPN2 (epsin 2) | 1.2 |
| ZC3H4 (zinc finger CCCH-type containing 4) | 0.89 |
| SLC25A36 | 1.05 |
| TAP2 (transporter 2, ATP binding cassette subfamily B member) | 0.97 |
| CWC22 (CWC22 spliceosome associated protein) | 1 |
| CPA3 (carboxypeptidase A3) | 1.13 |
| DAP3 (death associated protein 3) | 0.64 |
| DAPP1 (dual adaptor of phosphotyrosine and 3-phosphoinositides 1) | 0.98 |
| RTEL1 (regulator of telomere elongation helicase 1) | 1.04 |
| NAXE (NAD(P)HX epimerase) | 1.28 |
| COL3A1 (collagen type III alpha 1 chain) | 1.04 |
| LRP3 (LDL receptor related protein 3) | 0.92 |
| YPEL4 (yippee like 4) | 1.34 |
| SRSF6 (serine and arginine rich splicing factor 6) | 0.79 |
| SLC44A5 | 0.75 |
| PADI2 (peptidyl arginine deiminase 2) | 0.89 |
| FERMT2 (FERM domain containing kindlin 2) | 0.96 |
| BBS2 (Bardet-Biedl syndrome 2) | 0.87 |
| PIAS3 (protein inhibitor of activated STAT 3) | 1.02 |
| CHST1 (carbohydrate sulfotransferase 1) | 0.76 |
| AGTR1 (angiotensin II receptor type 1) | 0.84 |
| HIRA (histone cell cycle regulator) | 1.35 |
| AZGP1 (alpha-2-glycoprotein 1, zinc-binding) | 1.81 |
| FIP1L1 (factor interacting with PAPOLA and CPSF1) | 1.56 |
| LMAN2L (lectin, mannose binding 2 like) | 0.98 |
| OR10P1 (olfactory receptor family 10 subfamily P member 1) | 1.47 |
| CAMK2N1 (calcium/calmodulin dependent protein kinase II inhibitor 1) | 0.82 |
| SLC30A1 | 0.92 |
| CACNA2D1 | 1.38 |
| KRTAP4-12 (keratin associated protein 4-12) | 1.02 |
| HOOK1 (hook microtubule tethering protein 1) | 0.96 |
| COL21A1 (collagen type XXI alpha 1 chain) | 0.88 |
| PHEX (phosphate regulating endopeptidase X-linked) | 1.09 |
